Test results published in the supplement of paper PMC7024190.
Counter-ions that a name gives are not always drawn. The list shows a part of the results. Repeats in this data set agree poorly, so a single value says little.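 The cells were human embryonic kidney cells carrying a Renilla luciferase gene, driven by the HSV-TK promoter, on a plasmid put in briefly by transfection. This is the first-round screen of about ten thousand compounds, looking for ones that raise reporter output.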

System: HEK 293FT
Test: log relative Renilla luciferase luminescence (reporter expression vs reference, reference not stated) (log (base not stated)); higher = higher recombinant reporter expression
Settings: 10 µM; time after transfection 48 h

SMILES | log
N#Cc1c(O)c2c(-c3ccc(-c4ccccc4O)cc3)csc2[nH]c1=O | -0.0488
N[C@@H]1CCN(O)C1=O | -0.203
CC(C)SC(=N)N [S-Isopropylisothiourea hydrobromide] | -0.022
OCCN(CCO)c1nc(N2CCCCC2)c2nc(N(CCO)CCO)nc(N3CCCCC3)c2n1 [Dipyridamole] | -0.102
Oc1nc(-c2ccc(C(F)(F)F)cc2)nc2c1CSCC2 | -0.107
CCOC(=O)N1CCC(=C2c3ccc(Cl)cc3CCc3cccnc32)CC1 [Loratidine] | 0.142
Nc1nc2ccc(OC(F)(F)F)cc2s1 [Riluzole hydrochloride] | 0.00638
CN(Cc1ccccc1)C(=O)[C@H](Cc1ccc2ccccc2c1)NC(=O)[C@@H]1CCCN1C(=O)Nc1ccccc1[N+](=O)[O-] | 0.0863
C[C@@H](CN1CCC(n2c(=O)[nH]c3cc(Cl)ccc32)CC1)NC(=O)c1ccc2ccccc2c1 | 0.00532
O=C1CCc2c(ccc3ccccc23)O1 [Splitomicin] | 0.0175
c1ccc(C(O[C@@H]2CCCN(CCc3ccc4c(c3)OCO4)C2)c2ccccc2)cc1 [Zamifenacin fumarate] | -0.0206
CC(C(O)c1ccc(O)cc1)N1CCC(Cc2ccccc2)CC1 (stereo unspecified) [Ifenprodil hemitartrate] | -0.044
COP(=O)(OC)OC(c1ccc(Cl)cc1)P(=O)(OC)OC (stereo unspecified) | 0.0168
CN1C(=O)C(Cc2c[nH]c3ccccc23)NC1=S (stereo unspecified) [Necrostatin-1] | -0.0154
CCC1(c2ccccc2)C(=O)NCNC1=O [Primidone] | 0.0467
COc1ccc(-c2nc(C(=O)N3CCN(C)CC3)sc2-c2ccc(OC)cc2)cc1 | 0.154
C[N+]1(C)CCC(OC(=O)C(c2ccccc2)c2ccccc2)CC1 | 0.164
C=CCNC(=O)c1cc([N+](=O)[O-])cc2c(=O)[nH]c(Nc3ccc(Cl)c(Cl)c3)nc12 | 0.0106
Nc1nc(N)nc(-c2cc(Cl)ccc2Cl)n1 [Irsogladine maleate] | -0.121
O/N=C/c1ccc(-c2ccc(O)c(F)c2)c(Cl)c1O | 0.007
CCC(=O)NC1Cc2ccccc2C(c2ccccc2)C1 (stereo unspecified) | -0.0054
CC(C)[C@H](CO)Nc1nc(Nc2cccc(Cl)c2)c2ncn(C(C)C)c2n1 [Purvalanol A] | -0.0364
Cc1nc2sccn2c(=O)c1CCN1CCC(=C(c2ccccc2)c2ccc(F)cc2)CC1 | -0.0231
Cc1cc(F)c(Nc2ncnc3cc(OCc4ccccc4)ccc23)cc1O | -0.0328
C[C@H](NC[C@H](O)CP(=O)(O)Cc1ccccc1)c1ccc(Cl)c(Cl)c1 | -0.0186
CC(/C=C/c1cccc(Oc2ccc(F)cc2)c1)N(O)C(N)=O (stereo unspecified) | -0.119

Fetched by compound from the entries so far (two):
SMILES | log
Cc1cc(F)c(Nc2ncnc3cc(OCc4ccccc4)ccc23)cc1O | -0.0328
N#Cc1c(O)c2c(-c3ccc(-c4ccccc4O)cc3)csc2[nH]c1=O | -0.0488
